No constants are given. Whether binding was seen depends on the method and setting. Some entries that bind do so weakly or less than the wild type.
Experiments:
Assay in all cases: AP-ligand binding, COS-7
[1] = target: T1, human NgR1 alanine mutant 127, 176 (human) (UniProt Q9BZR6)
T1 sequence: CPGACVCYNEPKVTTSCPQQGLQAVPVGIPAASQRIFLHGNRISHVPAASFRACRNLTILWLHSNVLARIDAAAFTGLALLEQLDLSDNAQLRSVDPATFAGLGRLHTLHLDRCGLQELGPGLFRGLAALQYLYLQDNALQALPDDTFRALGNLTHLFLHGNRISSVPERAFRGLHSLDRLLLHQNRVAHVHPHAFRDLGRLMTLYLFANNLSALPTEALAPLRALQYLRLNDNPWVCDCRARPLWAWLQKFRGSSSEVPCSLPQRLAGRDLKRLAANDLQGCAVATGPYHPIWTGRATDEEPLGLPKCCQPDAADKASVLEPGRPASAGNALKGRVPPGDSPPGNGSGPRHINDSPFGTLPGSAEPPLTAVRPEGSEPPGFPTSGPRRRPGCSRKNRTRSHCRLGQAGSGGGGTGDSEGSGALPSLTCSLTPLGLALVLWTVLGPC

[2] = target: T2, human NgR1 alanine mutant 131 (human) (UniProt Q9BZR6)
T2 sequence: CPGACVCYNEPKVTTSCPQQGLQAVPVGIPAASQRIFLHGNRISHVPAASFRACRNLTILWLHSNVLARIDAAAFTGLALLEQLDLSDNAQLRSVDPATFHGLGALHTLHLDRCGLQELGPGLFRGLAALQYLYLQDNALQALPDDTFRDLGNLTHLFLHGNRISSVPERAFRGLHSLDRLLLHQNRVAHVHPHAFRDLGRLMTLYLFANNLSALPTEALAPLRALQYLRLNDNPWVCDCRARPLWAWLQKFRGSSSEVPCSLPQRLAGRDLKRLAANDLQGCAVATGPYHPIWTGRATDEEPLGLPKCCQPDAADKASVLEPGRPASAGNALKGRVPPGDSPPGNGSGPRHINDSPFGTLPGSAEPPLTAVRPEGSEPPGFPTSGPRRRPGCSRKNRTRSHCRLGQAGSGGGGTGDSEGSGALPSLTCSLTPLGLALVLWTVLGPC

[3] = target: T3, human NgR1 alanine mutant 139 (human) (UniProt Q9BZR6)
T3 sequence: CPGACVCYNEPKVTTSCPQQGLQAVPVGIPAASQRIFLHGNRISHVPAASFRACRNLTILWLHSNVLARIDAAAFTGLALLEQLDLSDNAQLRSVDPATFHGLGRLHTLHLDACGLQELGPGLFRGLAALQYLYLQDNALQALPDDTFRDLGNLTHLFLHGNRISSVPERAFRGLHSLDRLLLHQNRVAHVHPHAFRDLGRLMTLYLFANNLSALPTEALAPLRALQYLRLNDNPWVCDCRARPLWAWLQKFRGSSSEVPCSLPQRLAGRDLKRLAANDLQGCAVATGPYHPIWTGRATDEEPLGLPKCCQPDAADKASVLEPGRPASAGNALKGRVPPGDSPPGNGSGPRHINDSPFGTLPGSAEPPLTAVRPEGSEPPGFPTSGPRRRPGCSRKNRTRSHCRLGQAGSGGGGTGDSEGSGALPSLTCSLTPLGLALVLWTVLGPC

[4] = target: T4, human NgR1 alanine mutant 256, 259, 284 (human) (UniProt Q9BZR6)
T4 sequence: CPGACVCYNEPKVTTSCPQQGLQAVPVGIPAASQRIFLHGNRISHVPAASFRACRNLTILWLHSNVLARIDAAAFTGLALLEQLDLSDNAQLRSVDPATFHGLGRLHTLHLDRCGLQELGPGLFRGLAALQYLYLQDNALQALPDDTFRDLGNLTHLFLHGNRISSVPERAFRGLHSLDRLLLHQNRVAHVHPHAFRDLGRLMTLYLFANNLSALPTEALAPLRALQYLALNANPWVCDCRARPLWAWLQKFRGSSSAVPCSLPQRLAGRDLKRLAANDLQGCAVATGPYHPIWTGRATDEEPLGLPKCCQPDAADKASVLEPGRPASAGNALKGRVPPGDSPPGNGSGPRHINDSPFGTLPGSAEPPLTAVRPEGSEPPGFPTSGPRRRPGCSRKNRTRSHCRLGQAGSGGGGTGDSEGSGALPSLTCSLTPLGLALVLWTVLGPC

[5] = target: T5, human NgR1 alanine mutant 267, 269 (human) (UniProt Q9BZR6)
T5 sequence: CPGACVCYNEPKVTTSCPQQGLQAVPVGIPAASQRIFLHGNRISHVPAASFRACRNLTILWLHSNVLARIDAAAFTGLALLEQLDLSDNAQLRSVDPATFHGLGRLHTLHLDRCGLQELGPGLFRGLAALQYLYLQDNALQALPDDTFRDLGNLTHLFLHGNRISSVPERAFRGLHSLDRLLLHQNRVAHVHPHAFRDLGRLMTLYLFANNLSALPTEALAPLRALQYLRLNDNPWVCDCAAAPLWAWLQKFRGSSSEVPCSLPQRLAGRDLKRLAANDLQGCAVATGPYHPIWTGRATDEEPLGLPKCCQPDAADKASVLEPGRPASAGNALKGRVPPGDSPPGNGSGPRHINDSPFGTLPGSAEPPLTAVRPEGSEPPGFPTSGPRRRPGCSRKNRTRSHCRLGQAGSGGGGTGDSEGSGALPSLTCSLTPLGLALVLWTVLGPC

[6] = target: T6, human NgR1 alanine mutant 292, 296, 297, 300 (human) (UniProt Q9BZR6)
T6 sequence: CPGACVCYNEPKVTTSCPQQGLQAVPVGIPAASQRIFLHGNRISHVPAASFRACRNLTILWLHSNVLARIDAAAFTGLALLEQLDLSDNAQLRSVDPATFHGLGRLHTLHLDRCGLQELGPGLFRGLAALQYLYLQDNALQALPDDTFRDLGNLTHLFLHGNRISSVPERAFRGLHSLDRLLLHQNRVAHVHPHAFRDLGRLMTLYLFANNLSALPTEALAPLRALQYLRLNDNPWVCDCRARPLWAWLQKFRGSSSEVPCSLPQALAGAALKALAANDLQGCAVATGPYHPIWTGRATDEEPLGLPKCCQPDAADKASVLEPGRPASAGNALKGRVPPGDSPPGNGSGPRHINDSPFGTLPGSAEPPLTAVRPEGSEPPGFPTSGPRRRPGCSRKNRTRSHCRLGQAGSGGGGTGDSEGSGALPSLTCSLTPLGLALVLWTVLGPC

Measured: binding

B1: AP-fused Amino-Nogo fragment B4C (a.a. 950-1018) (ligand)
chain: LLPPDVSALATQAEIESIVKPKVLVKEAEKKLPSDTEKEDRSPSAIFSAELSKTSVVDLLYWRDIKKTG
notes: also called AmNg B4C; AP-B4C; not shown: alkaline phosphatase (AP), vector pcAP6
binds: all assays above

B2: AP-Nogo-66 (ligand, UniProt Q9NQC3 1055-1120, looked up)
chain: RIYKGVIQAIQKSDEGHPFRAYLESEVAISEELVQKYSNSALGHVNCTIKELRRLFLVDDLVDSLK
notes: domain: Nogo-66; construct described elsewhere (Fournier 2001); also called AP-Ng66; Ng66; not shown: alkaline phosphatase (AP); construct described elsewhere
binds: all assays above
